Results taken from patent US10087215B2, “Stabilized SOS1 peptides” (DANA-FARBER CANCER INSTITUTE, INC., priority 2013, dated 2018).
At least one compound was matched to its structure with a doubt left. Where a SMILES comes first, the peptide text is derived from it. Bridges are numbered along the chain shown (N, C = ends). [ ]: non-standard residue; d: D form. The star is where a group is joined. FITC = O=C1OC2(c3ccc(O)cc3Oc3cc(O)ccc32)c2ccc(NC(=S)*)cc21; R8 = C=CCCCCCC[C@@](C)(N)C(=O)O; S5 = C=CCCC[C@](C)(N)C(=O)O; βAla = NCCC(=O)O

Amino acid sequences for entries named in this document (tags omitted).
UniProt P01116, whole entry, looked up: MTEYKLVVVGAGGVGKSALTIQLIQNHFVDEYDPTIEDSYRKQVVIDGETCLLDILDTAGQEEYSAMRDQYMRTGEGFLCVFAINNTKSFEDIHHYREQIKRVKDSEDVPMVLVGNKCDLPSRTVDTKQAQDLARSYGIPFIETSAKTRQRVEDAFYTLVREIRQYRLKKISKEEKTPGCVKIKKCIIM

Molecular target: KRAS (wt) (Homo sapiens, UniProt P01116)
Experiment: Binding Affinity to KRAS (wt)

Compound | Kd [nM]
CC[C@H](C)[C@H](NC(=O)CNC(=O)[C@H](Cc1ccccc1)NC(=O)[C@H](Cc1ccccc1)NC(=O)[C@H](CCCNC(=N)N)NC(=O)[C@H](CCCNC(=N)N)NC(=O)CCNC(=S)Nc1ccc2c(c1)C(=O)OC21c2ccc(O)cc2Oc2cc(O)ccc21)C(=O)N[C@@H](Cc1ccc(O)cc1)C(=O)N[C@@H](CC(C)C)C(=O)N[C@H](C(=O)N[C@@H](CC(N)=O)C(=O)N[C@H](C(=O)N[C@@]1(C)CCCC=CCCC[C@@](C)(C(=O)NCC(=O)N[C@@H](CC(N)=O)C(N)=O)NC(=O)[C@H](CCC(=O)O)NC(=O)[C@H]([C@@H](C)O)NC(=O)[C@H](CCCCN)NC1=O)[C@@H](C)CC)[C@@H](C)O [SAH-SOSE2, RRFFGIYLTNUCKTEXGN] ({FITC-βAla}-RRFFGIYLTNI[S5]KTE[S5]GN-NH2; staple 12-16) | 24
CC[C@H](C)[C@H](NC(=O)[C@]1(C)CCCC=CCCC[C@](C)(NC(=O)CNC(=O)[C@H](Cc2ccccc2)NC(=O)[C@H](Cc2ccccc2)NC(=O)[C@H](CCCNC(=N)N)NC(=O)[C@H](CCCNC(=N)N)NC(=O)CCNC(=S)Nc2ccc3c(c2)C(=O)OC32c3ccc(O)cc3Oc3cc(O)ccc32)C(=O)N[C@@H](Cc2ccc(O)cc2)C(=O)N[C@@H](CC(C)C)C(=O)N[C@@H]([C@@H](C)O)C(=O)N1)C(=O)N[C@@H](CC(C)C)C(=O)N[C@@H](CCCCN)C(=O)N[C@H](C(=O)N[C@@H](CCC(=O)O)C(=O)N[C@@H](CCC(=O)O)C(=O)NCC(=O)N[C@@H](CC(N)=O)C(N)=O)[C@@H](C)O [SAH-SOSB2, RRFFGXYLTXILKTEEGN] | > 4000
CC[C@H](C)[C@@H]1NC(=O)CNC(=O)[C@@](C)(NC(=O)[C@H](Cc2ccccc2)NC(=O)CCNC(=S)Nc2ccc3c(c2)C(=O)OC32c3ccc(O)cc3Oc3cc(O)ccc32)CCCC=CCCC[C@@](C)(C(=O)N[C@H](C(=O)N[C@@H](CC(N)=O)C(=O)N[C@H](C(=O)N[C@@H](CC(C)C)C(=O)N[C@@H](CCCCN)C(=O)N[C@H](C(=O)N[C@@H](CCC(=O)O)C(=O)N[C@@H](CCC(=O)O)C(=O)NCC(=O)N[C@@H](CC(N)=O)C(=O)N[C@@H](CCCNC(=N)N)C(=O)N[C@@H](CCCNC(=N)N)C(N)=O)[C@@H](C)O)[C@@H](C)CC)[C@@H](C)O)NC(=O)[C@H](Cc2ccc(O)cc2)NC1=O [SAH-SOSA3, FXGIYXTNILKTEEGNRR] | 19
CC[C@H](C)[C@@H]1NC(=O)CNC(=O)[C@@](C)(NC(=O)[C@H](Cc2ccccc2)NC(=O)[C@H](CCCNC(=N)N)NC(=O)[C@H](CCCNC(=N)N)NC(=O)CCNC(=S)Nc2ccc3c(c2)C(=O)OC32c3ccc(O)cc3Oc3cc(O)ccc32)CCCC=CCCC[C@@](C)(C(=O)N[C@H](C(=O)N[C@@H](CC(N)=O)C(=O)N[C@H](C(=O)N[C@@H](CC(C)C)C(=O)N[C@@H](CCCCN)C(=O)N[C@H](C(=O)N[C@@H](CCC(=O)O)C(=O)N[C@@H](CCC(=O)O)C(=O)NCC(=O)N[C@@H](CC(N)=O)C(N)=O)[C@@H](C)O)[C@@H](C)CC)[C@@H](C)O)NC(=O)[C@H](Cc2ccc(O)cc2)NC1=O [SAH-SOSA2, RRFXGIYXTNILKTEEGN] | 21
CC[C@H](C)[C@@H]1NC(=O)CNC(=O)[C@](C)(NC(=O)[C@H](Cc2ccccc2)NC(=O)[C@H](CCCNC(=N)N)NC(=O)[C@H](CCCNC(=N)N)NC(=O)CCNC(=S)Nc2ccc3c(c2)C(=O)OC32c3ccc(O)cc3Oc3cc(O)ccc32)CCCCCCC=CCCC[C@@](C)(C(=O)N[C@@H](CC(C)C)C(=O)N[C@@H](CCCCN)C(=O)N[C@H](C(=O)N[C@@H](CCC(=O)O)C(=O)N[C@@H](CCC(=O)O)C(=O)NCC(=O)N[C@@H](CC(N)=O)C(N)=O)[C@@H](C)O)NC(=O)[C@H](CC(N)=O)NC(=O)[C@H]([C@@H](C)O)NC(=O)[C@H](CC(C)C)NC(=O)[C@H](Cc2ccc(O)cc2)NC1=O [SAH-SOSH2, RRFXGIYLTNXLKTEEGN] ({FITC-βAla}-RRF[R8]GIYLTN[S5]LKTEEGN-NH2; staple 4-11) | 29
